The values below come from publication doi:10.1101/2022.06.27.497790.

For this assay, the target named is T1, Hspa13^Flag (human (cDNA from HEK293T)) (UniProt P48723).
T1 sequence: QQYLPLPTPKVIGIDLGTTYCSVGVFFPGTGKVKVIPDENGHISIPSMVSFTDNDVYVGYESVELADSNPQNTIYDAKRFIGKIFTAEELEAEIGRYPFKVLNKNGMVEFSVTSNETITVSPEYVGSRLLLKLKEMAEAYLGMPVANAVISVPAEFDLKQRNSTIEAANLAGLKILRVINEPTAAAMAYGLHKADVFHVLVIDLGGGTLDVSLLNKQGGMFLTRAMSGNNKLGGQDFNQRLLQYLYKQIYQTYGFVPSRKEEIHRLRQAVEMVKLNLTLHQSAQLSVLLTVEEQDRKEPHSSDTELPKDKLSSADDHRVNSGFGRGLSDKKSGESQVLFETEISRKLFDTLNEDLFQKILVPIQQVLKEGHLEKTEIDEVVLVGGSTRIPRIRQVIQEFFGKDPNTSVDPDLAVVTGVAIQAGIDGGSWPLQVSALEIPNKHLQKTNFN
As to the kind of experiment: co-IP.

These are yes or no findings as the source states them, for the method shown. In cells and extracts the contact can be indirect. Some results given as binding are weak or reduced against the parent protein; the word gives no strength. Where a sequence is shown, tags or fusion partners need not be part of it.

B1: Bcap31 (protein, UniProt P51572 1-246)
chain: MSLQWTAVATFLYAEVFVVLLLCIPFISPKRWQKIFKSRLVELLVSYGNTFFVVLIVILVLLVIDAVREIRKYDDVTEKVNLQNNPGAMEHFHMKLFRAQRNLYIAGFSLLLSFLLRRLVTLISQQATLLASNEAFKKQAESASEAAKKYMEENDQLKKGAAVDGGKLDVGNAEVKLEEENRSLKADLQKLKDELASTKQKLEKAENQVLAMRKQSEGLTKEYDRLLEEHAKLQAAVDGPMDKKEE
With B1, the binding entry was “binds”.
